Measurements taken from patent publication US12365636B2, “Microbial protectant in high-nutrient and high-activity chemical fertilizer-biological compound fertilizer and preparation method thereof” (SHANDONG ACADEMY OF AGRICULTURAL SCIENCES, priority 2023, dated 2025).
Some results were stated once for a whole list of compounds, not compound by compound.

System: beneficial microorganism rhizosphere
Assay: Colonization amount of microorganism rhizosphere
Conditions: in the chemical fertilizer-biological compound fertilizer; fumaric acid and citric acid together

Row | Compound | increase the colonization amount of microorganism rhizosphere
1 | O=C(O)CC(O)(CC(=O)O)C(=O)O [citric acid] | 2.0-6.0 times
2 | O=C(O)/C=C/C(=O)O [fumaric acid] | 2.0-6.0 times
